The supplement of paper PMC4604168 (melanoma cell lines)
The other results are listed elsewhere or left out. Many values rest on one well or one pass, so single values are uncertain.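 Cells were imaged in 1,536-well plates, and nuclei stained with an antibody against cleaved PARP were counted against all DNA-stained nuclei to give the apoptosis fraction. Screening doses were chosen to leave most cells alive, and resting and induced cleaved-PARP levels differ strongly between cell lines.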

Key:
Assay in all cases: cleaved PARP positive nuclei fraction relative to DMSO control; melanoma cells; higher = more apoptosis
Conditions in all cases: library dose: low library concentration; 72 h
[1] = tested on: MZ2-MEL
[2] = tested on: MeWo
[3] = tested on: RPMI7951
[4] = tested on: RVH-421
[5] = tested on: SkMel28
[6] = tested on: SkMel2
[7] = tested on: SkMel30
[8] = tested on: UACC62
[9] = tested on: WM115
[10] = tested on: WM1716
[11] = tested on: WM1745
[12] = tested on: WM3526
[13] = tested on: WM3619
[14] = tested on: WM451Lu

Compound	cleaved PARP positive nuclei fraction [1]	cleaved PARP positive nuclei fraction [2]	cleaved PARP positive nuclei fraction [3]	cleaved PARP positive nuclei fraction [4]	cleaved PARP positive nuclei fraction [5]	cleaved PARP positive nuclei fraction [6]	cleaved PARP positive nuclei fraction [7]	cleaved PARP positive nuclei fraction [8]	cleaved PARP positive nuclei fraction [9]	cleaved PARP positive nuclei fraction [10]	cleaved PARP positive nuclei fraction [11]	cleaved PARP positive nuclei fraction [12]	cleaved PARP positive nuclei fraction [13]	cleaved PARP positive nuclei fraction [14]
O=C(Nc1cc(C(F)(F)F)cc(C(F)(F)F)c1)c1cc(Cl)ccc1O + Nc1nc(F)nc2c1ncn2[C@@H]1O[C@H](CO)[C@@H](O)[C@@H]1O [fludarabine] (first compound 0.016 µM, partner dose 0.2 µM)	89.7%	333%	110%	56.9%	80.4%	11100%	1700%	96.8%	104%	75%	74.9%	395%	104%	470%
COc1cc([C@@H]2c3cc4c(cc3[C@@H](O[C@@H]3O[C@@H]5CO[C@@H](C)O[C@H]5[C@H](O)[C@H]3O)[C@H]3COC(=O)[C@H]23)OCO4)cc(OC)c1O [etoposide] + Cn1c(Nc2ccc(C(F)(F)F)cc2)nc2cc(Oc3ccnc(-c4ncc(C(F)(F)F)[nH]4)c3)ccc21 [CHIR265] (first compound 0.02 µM, partner dose 0.08 µM)	79%	176%	225%	293%	316%	238%	121%	417%	933%	194%	159%	148%	123%	51.7%
Cc1ccc(Nc2nccc(N(C)c3ccc4c(C)n(C)nc4c3)n2)cc1S(N)(=O)=O [Pazopanib] + COCC[n+]1c2c(n(Cc3cnccn3)c1C)C(=O)c1ccccc1C2=O [YM155] (first compound 0.4 µM, partner dose 0.0004 µM)	78.1%	64.9%	49.1%	144%	184%	159%	115%	115%	95.6%	208%	101%	102%	96.9%	77.1%
O=C(/C=C/c1cccnc1)NCCCCC1CCN(C(=O)c2ccccc2)CC1 + Nc1cccc2c1CN(C1CCC(=O)NC1=O)C2=O [lenalidomide] (first compound 0.01 µM, partner dose 1 µM)	449%	66.5%	47.8%	147%	75.3%	1980%	124%	142%	62%	144%	105%	127%	97.6%	94.7%
Cc1cn(-c2cc(NC(=O)c3ccc(C)c(Nc4nccc(-c5cccnc5)n4)c3)cc(C(F)(F)F)c2)cn1 [nilotinib] + O=C(O)[C@@H]1[O][Sb](=[O])([O][Sb]2(=[O])[O][C@H]([C@H](O)CO)[C@H](O)[C@H](C(=O)O)[O]2)[O][C@H]([C@H](O)CO)[C@@H]1O [stibogluconate] (first compound 0.2 µM, partner dose 2 µM)	130%	134%	58.2%	53.8%	74.7%	145%	127%	109%	117%	35.7%	106%	72.5%	93.6%	41.4%
Cc1ccc(Nc2nccc(N(C)c3ccc4c(C)n(C)nc4c3)n2)cc1S(N)(=O)=O [Pazopanib] + COc1ccc(Cl)c(Nc2nc3ccccc3nc2NS(=O)(=O)c2cccc(NC(=O)C(C)(C)N)c2)c1 [XL147] (first compound 0.4 µM, partner dose 0.8 µM)	141%	142%	141%	73.1%	82.4%	104%	157%	201%	112%	83.4%	103%	120%	119%	341%
Cc1cn(-c2cc(NC(=O)c3ccc(C)c(Nc4nccc(-c5cccnc5)n4)c3)cc(C(F)(F)F)c2)cn1 [nilotinib] + Nc1ncn([C@H]2C[C@H](O)[C@@H](CO)O2)c(=O)n1 [decitabine] (first compound 0.2 µM, partner dose 0.1 µM)	149%	165%	103%	181%	90.8%	43%	69.8%	49.6%	111%	153%	100%	213%	97%	61.3%
O=c1[nH]nc(Sc2ncc([N+](=O)[O-])s2)n1-c1ccc2c(c1)OCCO2 + CC(=O)c1c(C)c2cnc(Nc3ccc(N4CCNCC4)cn3)nc2n(C2CCCC2)c1=O [palbociclib] (first compound 0.2 µM, partner dose 0.04 µM)	136%	55.1%	84.1%	115%	37.5%	39.1%	120%	127%	133%	47.2%	112%	86.1%	103%	47.5%
O=c1[nH]nc(Sc2ncc([N+](=O)[O-])s2)n1-c1ccc2c(c1)OCCO2 + Cc1cn(-c2cc(NC(=O)c3ccc(C)c(Nc4nccc(-c5cccnc5)n4)c3)cc(C(F)(F)F)c2)cn1 [nilotinib] (first compound 0.2 µM, partner dose 0.2 µM)	42.2%	113%	129%	45.1%	73.8%	127%	83.1%	95.6%	95.7%	147%	110%	178%	108%	80.4%
O=c1[nH]nc(Sc2ncc([N+](=O)[O-])s2)n1-c1ccc2c(c1)OCCO2 + C=C(c1ccc(C(=O)O)cc1)c1cc2c(cc1C)C(C)(C)CCC2(C)C [Bexarotene] (first compound 0.2 µM, partner dose 2 µM)	112%	30.3%	57.4%	216%	95.6%	57%	74.8%	53.4%	266%	311%	89.2%	211%	113%	95.1%
CCCCCCCCCCCCCCCCCCOP(=O)([O-])OC1CC[N+](C)(C)CC1 [Perifosine] + CN(c1ncccc1CNc1nc(Nc2ccc3c(c2)CC(=O)N3)ncc1C(F)(F)F)S(C)(=O)=O [PF562271] (first compound 0.4 µM, partner dose 0.08 µM)	95%	51.1%	147%	260%	46.1%	84.5%	51.9%	161%	234%	65.8%	117%	21%	72.4%	205%
Cc1cn(-c2cc(NC(=O)c3ccc(C)c(Nc4nccc(-c5cccnc5)n4)c3)cc(C(F)(F)F)c2)cn1 [nilotinib] + C=CCNC1=C2C[C@@H](C)C[C@H](OC)[C@H](O)[C@@H](C)/C=C(\C)[C@H](OC(N)=O)[C@@H](OC)/C=C\C=C(/C)C(=O)NC(=CC1=O)C2=O [Tanespimycin] (first compound 0.2 µM, partner dose 0.002 µM)	143%	91.7%	344%	59.6%	74.1%	143%	79%	51.8%	161%	35.6%	108%	34.6%	98.4%	71.3%
Cc1ccc(Nc2nccc(N(C)c3ccc4c(C)n(C)nc4c3)n2)cc1S(N)(=O)=O [Pazopanib] + CC(C)C[C@H](NC(=O)[C@H](Cc1ccccc1)NC(=O)c1cnccn1)B(O)O [Bortezomib] (first compound 0.4 µM, partner dose 0.001 µM)	94.1%	138%	60%	81.9%	51.7%	76.7%	150%	305%	56.1%	40.6%	104%	53.2%	104%	498%
N#CC[C@H](C1CCCC1)n1cc(-c2ncnc3[nH]ccc23)cn1 [ruxolitinib] + C[C@@H](Oc1cc(-c2cnn(C3CCNCC3)c2)cnc1N)c1c(Cl)ccc(F)c1Cl [Crizotinib] (first compound 1 µM, partner dose 0.2 µM)	95%	58.7%	38.5%	111%	64.5%	158%	30%	52.4%	41.1%	84.1%	86.2%	235%	82.2%	64.6%
CCCCCCCCCCCCCCCCCCOP(=O)([O-])OC1CC[N+](C)(C)CC1 [Perifosine] + CS(=O)(=O)c1ccc(C(=O)Nc2ccc(Cl)c(-c3ccccn3)c2)c(Cl)c1 [vismodegib] (first compound 0.4 µM, partner dose 1 µM)	47.8%	31.4%	102%	114%	303%	43.3%	88.1%	66.6%	138%	47.7%	97.7%	65.3%	99.5%	91.8%
Cc1cn(-c2cc(NC(=O)c3ccc(C)c(Nc4nccc(-c5cccnc5)n4)c3)cc(C(F)(F)F)c2)cn1 [nilotinib] + Clc1ccc(Nc2nnc(Cc3ccncc3)c3ccccc23)cc1 [vatalanib] (first compound 0.2 µM, partner dose 2 µM)	84.5%	169%	71.5%	235%	31.4%	39.8%	101%	203%	88.2%	118%	1090%	124%	99%	28.2%
Cc1cn(-c2cc(NC(=O)c3ccc(C)c(Nc4nccc(-c5cccnc5)n4)c3)cc(C(F)(F)F)c2)cn1 [nilotinib] + C[C@]1(O)C[C@@H](c2nc(-c3ccc4ccc(-c5ccccc5)nc4c3)c3c(N)nccn32)C1 [OSI906] (first compound 0.2 µM, partner dose 0.4 µM)	78.8%	85.5%	54.7%	71.7%	95.2%	160%	112%	47.7%	164%	83%	164%	63.8%	101%	62.5%

Whole records from above. Values in the order: cleaved PARP positive nuclei fraction [1] | cleaved PARP positive nuclei fraction [2] | cleaved PARP positive nuclei fraction [3] | cleaved PARP positive nuclei fraction [4] | cleaved PARP positive nuclei fraction [5] | cleaved PARP positive nuclei fraction [6] | cleaved PARP positive nuclei fraction [7] | cleaved PARP positive nuclei fraction [8] | cleaved PARP positive nuclei fraction [9] | cleaved PARP positive nuclei fraction [10] | cleaved PARP positive nuclei fraction [11] | cleaved PARP positive nuclei fraction [12] | cleaved PARP positive nuclei fraction [13] | cleaved PARP positive nuclei fraction [14]
Cc1ccc(Nc2nccc(N(C)c3ccc4c(C)n(C)nc4c3)n2)cc1S(N)(=O)=O [Pazopanib] + COCC[n+]1c2c(n(Cc3cnccn3)c1C)C(=O)c1ccccc1C2=O [YM155] (first compound 0.4 µM, partner dose 0.0004 µM) as listed: 78.1% | 64.9% | 49.1% | 144% | 184% | 159% | 115% | 115% | 95.6% | 208% | 101% | 102% | 96.9% | 77.1%
N#CC[C@H](C1CCCC1)n1cc(-c2ncnc3[nH]ccc23)cn1 [ruxolitinib] + C[C@@H](Oc1cc(-c2cnn(C3CCNCC3)c2)cnc1N)c1c(Cl)ccc(F)c1Cl [Crizotinib] (first compound 1 µM, partner dose 0.2 µM) as listed: 95% | 58.7% | 38.5% | 111% | 64.5% | 158% | 30% | 52.4% | 41.1% | 84.1% | 86.2% | 235% | 82.2% | 64.6%
